The other results are listed elsewhere or left out. Shown are side measurements of this screen, not its main read-out; they come without a call. Most of these compounds were active or inconclusive in the main read-out, so they are no random draw. Words in brackets tell the shape of the fitted curve; partial curves, single points and poor fits give uncertain potencies.
Test: A High-Content qHTS Against Drug Library for the Identification of Small Molecules that Inhibit DYT1 Early Onset Primary Dystonia-Associated Cell Pathology (AID 1645839)
Settings: HEK293 Flp-In EGFP-delE TorsinA, punctate imaging, 48 h; measured here: cell count cytotoxicity
In short: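 Readout: %pathology, the punctate EGFP-TorsinA distribution from imaging, as the primary channel and cell count as the toxicity counterscreen. HEK293 Flp-In cells expressing delE TorsinA were induced with tetracycline and treated with compound for 48 h.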

SMILES | AC50
Oc1cccc2[nH]ccc12 | 7.94 µM [falling, partial curve, poor fit]
C[C@H]1C[C@H]2[C@@H]3CCC4=CC(=O)C=C[C@]4(C)[C@H]3C(=O)C[C@]2(C)[C@@]1(O)C(=O)CO | 35.5 µM [rising, single point]
CC(C)(C)c1cc(C=O)cc(C(C)(C)C)c1O | 15.8 µM [rising, single point]
O=C(CCCl)NCCc1ccccc1 | 5.01 µM [rising, full curve, poor fit]
COc1ccc2c(c1)c(CC(=O)OC/C=C(\C)CC/C=C(\C)CCC=C(C)C)c(C)n2C(=O)c1ccc(Cl)cc1 | 3.16 µM [falling, single point]
CCc1oc2ccccc2c1C(=O)c1cc(I)c(O)c(I)c1 | 22.4 µM [falling, single point]
Cc1oc(-c2ccccc2)nc1CCC(=O)c1ccc(CC2SC(=O)NC2=O)cc1 (stereo unspecified) | 12.6 µM [falling, partial curve, poor fit]
COC(c1ccccc1)(c1ccccc1)[C@H](Oc1nc(C)cc(C)n1)C(=O)O | 22.4 µM [rising, single point]
COC(=O)c1c(Cl)c(Cl)c(C(=O)OC)c(Cl)c1Cl | 63.1 µM [rising, single point]
C=CCN1C[C@H](C(=O)N(CCCN(C)C)C(=O)NCC)C[C@@H]2c3cccc4[nH]cc(c34)C[C@H]21 | 28.2 µM [falling, partial curve, poor fit]

Taken from the entries so far, 2 compounds:
SMILES | AC50
COC(c1ccccc1)(c1ccccc1)[C@H](Oc1nc(C)cc(C)n1)C(=O)O | 22.4 µM [rising, single point]
COC(=O)c1c(Cl)c(Cl)c(C(=O)OC)c(Cl)c1Cl | 63.1 µM [rising, single point]
